No constants are given. Whether binding was seen depends on the method and setting. Binding seen in cells or lysates may run through a third protein. These calls come from enrichment with a bait or labelling near it, and not all partners need be listed.
B1: T-complex protein 1 subunit beta (protein, UniProt P78371 1-535)
chain: MASLSLAPVNIFKAGADEERAETARLTSFIGAIAIGDLVKSTLGPKGMDKILLSSGRDASLMVTNDGATILKNIGVDNPAAKVLVDMSRVQDDEVGDGTTSVTVLAAELLREAESLIAKKIHPQTIIAGWREATKAAREALLSSAVDHGSDEVKFRQDLMNIAGTTLSSKLLTHHKDHFTKLAVEAVLRLKGSGNLEAIHIIKKLGGSLADSYLDEGFLLDKKIGVNQPKRIENAKILIANTGMDTDKIKIFGSRVRVDSTAKVAEIEHAEKEKMKEKVERILKHGINCFINRQLIYNYPEQLFGAAGVMAIEHADFAGVERLALVTGGEIASTFDHPELVKLGSCKLIEEVMIGEDKLIHFSGVALGEACTIVLRGATQQILDEAERSLHDALCVLAQTVKDSRTVYGGGCSEMLMAHAVTQLANRTPGKEAVAMESYAKALRMLPTIIADNAGYDSADLVAQLRAAHSEGNTTAGLDMREGTIGDMAILGITESFQVKRQVLLSAAEAAEVILRVDNIIKAAPRKRVPDHHPC
B2: Pfd5 (fission yeast prefoldin subunit 5) (protein, UniProt O94307 1-154)
chain: MAEGNKAVDLTSLSLEQLSEVIKQLDSELEYLSTSYGQLGRAQLKFRECLANVNDAVRAENDGKEVLVPLTSSLYVPGKLNLGNSKLLVDIGTGYYVEKSAGEATEYYKRKCEYLASSIENLNNAIDAKSVQIRAVQNIMQQKATATTAATKSS
B3: Mdj1 (protein, UniProt P87239 67-528)
chain: NFSYHARCFHATRAVWEMTDPYKTLGVSKSASASEIKSAYYKLAKQYHPDANPDKAAQDKFVEIKQAYEVLQDPKKKKAFDTYGAGAFKNGEFTGGDFEGFQNGFAGASSFSSGFPGFNFEDLFGFSSRGPQARRNTSFDVFVGEDIEASITIDFMEAVRGAKKDLSYSVSSTCSSCHGSGLQPGSHKSTCFACKGTGQRLHFIPPSFHMQTTCDSCGGTGTTIPPNSACRSCMGSGTVRERKTVSIDIPPGIDDNTVLRVMGAGNDASTAKGGPNAKSRPGDLFATIHVRKHPFFVREGTNVTYNAKIPMTTAALGGTLRVPTLTGNVDLRVSPGTSTGDRITMAGKGIRKVNTSRYGNFYVNFEVTIPKILSPHERSLLEQLADALNDSTARRTQSSPSGTNSSTSTSSTSSKHSTGISTEPTTGEENKQDGSVGGFFKRAFRRLHPDEDQNPKKDESSS

Chains of the proteins cited; added tags and fusions are not shown. Lines headed by an entry give the natural chain unless they say otherwise; changes in a name come on top.
UniProt P40337: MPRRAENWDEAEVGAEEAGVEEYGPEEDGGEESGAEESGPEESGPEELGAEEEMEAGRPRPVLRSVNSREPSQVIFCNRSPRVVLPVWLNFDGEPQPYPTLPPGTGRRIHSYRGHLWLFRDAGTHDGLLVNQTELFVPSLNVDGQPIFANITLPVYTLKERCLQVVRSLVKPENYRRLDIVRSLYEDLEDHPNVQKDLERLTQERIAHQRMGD

Experiments:
[1] = target: pVHL172-BirA(R118G)-HA fusion protein (human) (UniProt P40337); assay: proximity labelling; BioID with mass spectrometry: VHL-BirA(R118G)-HA baits expressed in HEK293 cells, biotin in the medium from 4 to 24 h after transfection; RIPA lysate; biotinylated proteins captured on streptavidin-Sepharose beads; on-bead digestion, LC-MS/MS, LFQ intensities
[2] = target: pVHL213-BirA(R118G)-HA fusion protein (human) (UniProt P40337); assay: as above
[3] = target: GFP-pVHL213 expressed in fission yeast (human) (UniProt P40337); assay: affinity purification with mass spectrometry; GFP-Trap MA beads on whole cell lysates of fission yeast expressing GFP-pVHL213 or GFP (20 mM Tris HCl pH 7.5, 150 mM NaCl, 2 mM EDTA, 0.5% Nonidet P40), 90 min at 4 C; on-bead digestion, LC-MS/MS

Binder | binding [1] | binding [2] | binding [3]
B1 | binds | binds | –
B2 | – | – | binds
B3 | – | – | binds

Reference: PMC7660911
